No constants are given. Whether binding was seen depends on the method and setting. Binding seen in cells or lysates may run through a third protein. A yes stands for co-enrichment or nearness to the bait. Other partners may have been found.
Target: LAP-KNL1 (human) (UniProt Q8NG31)
Assay: affinity purification with mass spectrometry; SILAC; LAP-BUB1 or LAP-KNL1 coupled to GFP-trap from mitotic (nocodazole) HeLa lysate; cells treated with 500 nM Reversine for 30 min or DMSO; lysis in 500 mM NaCl, washes with 2 M NaCl and 50 mM NaCl

By UniProt entry, the sequences of proteins in these tests, tags left out.
UniProt Q8NG31: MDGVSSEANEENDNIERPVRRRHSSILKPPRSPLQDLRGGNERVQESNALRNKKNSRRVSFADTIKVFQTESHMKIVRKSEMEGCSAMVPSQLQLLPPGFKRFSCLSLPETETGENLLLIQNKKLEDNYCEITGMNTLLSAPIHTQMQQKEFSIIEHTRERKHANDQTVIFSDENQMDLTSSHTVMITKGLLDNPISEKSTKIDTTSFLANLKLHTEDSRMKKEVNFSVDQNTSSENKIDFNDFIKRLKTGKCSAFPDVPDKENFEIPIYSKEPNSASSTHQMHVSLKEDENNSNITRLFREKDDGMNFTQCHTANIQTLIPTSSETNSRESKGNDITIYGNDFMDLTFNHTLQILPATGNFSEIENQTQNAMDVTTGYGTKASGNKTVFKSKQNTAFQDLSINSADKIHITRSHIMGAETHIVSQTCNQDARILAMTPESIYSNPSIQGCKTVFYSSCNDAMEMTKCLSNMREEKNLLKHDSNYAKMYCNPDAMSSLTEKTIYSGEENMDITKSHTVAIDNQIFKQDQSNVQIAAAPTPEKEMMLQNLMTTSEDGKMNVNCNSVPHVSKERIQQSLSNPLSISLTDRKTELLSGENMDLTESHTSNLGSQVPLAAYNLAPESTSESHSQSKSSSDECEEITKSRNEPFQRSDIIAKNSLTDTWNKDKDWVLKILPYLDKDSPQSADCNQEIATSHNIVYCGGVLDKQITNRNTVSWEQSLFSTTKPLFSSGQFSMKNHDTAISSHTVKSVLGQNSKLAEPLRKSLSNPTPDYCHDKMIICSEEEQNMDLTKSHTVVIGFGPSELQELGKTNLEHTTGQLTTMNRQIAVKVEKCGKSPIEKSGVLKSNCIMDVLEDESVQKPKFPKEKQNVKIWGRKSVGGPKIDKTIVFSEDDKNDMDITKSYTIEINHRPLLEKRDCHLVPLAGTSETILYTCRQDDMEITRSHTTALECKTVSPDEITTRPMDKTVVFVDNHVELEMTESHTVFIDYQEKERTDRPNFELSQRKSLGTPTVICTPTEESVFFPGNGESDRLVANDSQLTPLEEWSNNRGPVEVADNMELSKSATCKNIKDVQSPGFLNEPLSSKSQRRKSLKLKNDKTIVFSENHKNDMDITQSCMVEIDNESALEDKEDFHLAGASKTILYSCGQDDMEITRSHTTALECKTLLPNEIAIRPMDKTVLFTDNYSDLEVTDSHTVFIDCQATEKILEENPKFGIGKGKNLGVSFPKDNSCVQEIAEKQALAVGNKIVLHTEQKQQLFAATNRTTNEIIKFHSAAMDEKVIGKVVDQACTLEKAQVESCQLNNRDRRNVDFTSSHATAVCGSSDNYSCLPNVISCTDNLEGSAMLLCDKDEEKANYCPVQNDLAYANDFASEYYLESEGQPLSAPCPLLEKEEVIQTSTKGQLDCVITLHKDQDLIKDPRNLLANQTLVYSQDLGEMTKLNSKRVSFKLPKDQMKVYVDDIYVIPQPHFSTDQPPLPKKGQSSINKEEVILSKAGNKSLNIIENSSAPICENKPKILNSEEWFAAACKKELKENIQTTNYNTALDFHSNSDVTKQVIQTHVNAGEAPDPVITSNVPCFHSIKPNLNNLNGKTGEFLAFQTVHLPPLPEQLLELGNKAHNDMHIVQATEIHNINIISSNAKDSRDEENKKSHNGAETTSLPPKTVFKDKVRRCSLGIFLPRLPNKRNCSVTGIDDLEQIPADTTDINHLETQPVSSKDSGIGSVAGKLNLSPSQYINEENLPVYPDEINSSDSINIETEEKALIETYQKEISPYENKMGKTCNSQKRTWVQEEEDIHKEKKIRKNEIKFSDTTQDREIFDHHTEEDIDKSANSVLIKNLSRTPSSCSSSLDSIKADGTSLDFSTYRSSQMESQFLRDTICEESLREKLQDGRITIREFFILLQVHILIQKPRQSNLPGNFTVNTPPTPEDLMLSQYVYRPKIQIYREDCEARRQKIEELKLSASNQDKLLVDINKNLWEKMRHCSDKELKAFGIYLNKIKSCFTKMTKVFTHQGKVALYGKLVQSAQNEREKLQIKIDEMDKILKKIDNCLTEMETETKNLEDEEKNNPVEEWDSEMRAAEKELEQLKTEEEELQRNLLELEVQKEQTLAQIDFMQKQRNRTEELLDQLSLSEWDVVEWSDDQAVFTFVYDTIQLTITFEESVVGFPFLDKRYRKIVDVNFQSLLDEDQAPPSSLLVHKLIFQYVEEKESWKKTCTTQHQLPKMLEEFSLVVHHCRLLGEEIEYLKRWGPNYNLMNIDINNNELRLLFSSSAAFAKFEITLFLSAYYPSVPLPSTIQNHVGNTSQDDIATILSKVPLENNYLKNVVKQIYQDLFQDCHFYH
UniProt O43684: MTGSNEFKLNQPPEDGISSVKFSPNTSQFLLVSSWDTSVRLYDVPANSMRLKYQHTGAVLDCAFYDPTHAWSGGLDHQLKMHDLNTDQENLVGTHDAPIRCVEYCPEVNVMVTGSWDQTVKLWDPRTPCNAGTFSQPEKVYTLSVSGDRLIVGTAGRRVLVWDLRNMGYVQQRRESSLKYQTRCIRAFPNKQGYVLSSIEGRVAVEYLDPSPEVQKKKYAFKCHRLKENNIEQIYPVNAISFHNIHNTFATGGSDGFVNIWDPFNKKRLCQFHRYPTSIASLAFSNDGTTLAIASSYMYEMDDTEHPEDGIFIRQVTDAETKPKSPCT

binding: binds
Substance: Bub3 (from UniProt O43684 1-328)
